According to publication PMC3912051:
Results are given in words; binding and its absence hold for the method and conditions named. In cells and extracts the contact can be indirect. For some assays here: Binding can be weak; no strength is given.

Sequences of proteins named here, by UniProt entry; tags and fusion partners are left off. A change or cut given only in a name is not applied to a line headed by its entry.
UniProt P21506: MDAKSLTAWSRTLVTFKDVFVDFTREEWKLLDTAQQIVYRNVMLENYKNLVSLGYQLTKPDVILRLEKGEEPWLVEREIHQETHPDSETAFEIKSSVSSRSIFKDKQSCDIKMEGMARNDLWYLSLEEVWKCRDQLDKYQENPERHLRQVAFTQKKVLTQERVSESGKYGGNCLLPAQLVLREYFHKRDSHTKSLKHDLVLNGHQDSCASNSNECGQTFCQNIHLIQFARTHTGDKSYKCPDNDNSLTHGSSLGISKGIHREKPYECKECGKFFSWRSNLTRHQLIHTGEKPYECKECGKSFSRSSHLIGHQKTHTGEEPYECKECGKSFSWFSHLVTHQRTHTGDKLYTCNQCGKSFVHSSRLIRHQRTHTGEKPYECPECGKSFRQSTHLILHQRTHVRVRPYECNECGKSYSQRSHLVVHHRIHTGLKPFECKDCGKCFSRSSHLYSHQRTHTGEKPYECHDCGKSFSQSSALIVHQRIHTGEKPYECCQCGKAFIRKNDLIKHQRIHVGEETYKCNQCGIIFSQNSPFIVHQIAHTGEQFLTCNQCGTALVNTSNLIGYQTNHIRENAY
UniProt Q13263: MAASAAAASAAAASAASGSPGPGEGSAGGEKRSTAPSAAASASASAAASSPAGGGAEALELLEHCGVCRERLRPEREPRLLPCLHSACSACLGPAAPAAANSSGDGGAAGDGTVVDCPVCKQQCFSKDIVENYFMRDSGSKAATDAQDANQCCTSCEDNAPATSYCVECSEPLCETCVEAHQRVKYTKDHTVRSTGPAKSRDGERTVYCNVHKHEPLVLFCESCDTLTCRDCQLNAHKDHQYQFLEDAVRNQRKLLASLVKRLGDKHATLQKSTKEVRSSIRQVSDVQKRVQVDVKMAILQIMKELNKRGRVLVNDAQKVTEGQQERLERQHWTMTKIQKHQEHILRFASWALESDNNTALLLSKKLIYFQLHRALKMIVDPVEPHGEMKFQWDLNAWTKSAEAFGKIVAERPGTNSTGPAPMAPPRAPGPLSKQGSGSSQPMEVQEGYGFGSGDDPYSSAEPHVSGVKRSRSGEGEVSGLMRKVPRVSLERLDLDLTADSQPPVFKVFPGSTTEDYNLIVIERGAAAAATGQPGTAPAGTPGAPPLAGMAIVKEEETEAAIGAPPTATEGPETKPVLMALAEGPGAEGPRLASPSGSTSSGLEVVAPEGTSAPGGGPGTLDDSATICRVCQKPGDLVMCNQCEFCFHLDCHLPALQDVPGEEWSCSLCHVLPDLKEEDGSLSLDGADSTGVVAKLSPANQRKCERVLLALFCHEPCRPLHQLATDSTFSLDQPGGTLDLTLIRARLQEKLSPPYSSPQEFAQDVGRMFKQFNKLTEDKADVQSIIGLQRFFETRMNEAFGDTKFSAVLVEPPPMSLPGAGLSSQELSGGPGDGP

How the values were obtained:
[1] = molecular target: GST-ZNF10-KRAB-A (KRAB-A subdomain of human ZNF10/Kox1 fused to glutathione S-transferase) (human) (UniProt P21506); experiment: co-IP; GST-KRAB fusions expressed in HeLa cells; lysis in TST buffer (20 mM TRIS/HCl pH 7.5, 60 mM KCl, 15 mM NaCl, 10 mM MgCl2, 1 mM CaCl2, 250 mM sucrose, 0.5% Triton X-100); 1.25 mg total protein; IP with rabbit anti-GST and protein-G agarose; Western blot for endogenous TRIM28
[2] = molecular target: GST-ZNF10-KRAB-AB (KRAB-AB domain of human ZNF10/Kox1 fused to glutathione S-transferase) (human) (UniProt P21506); experiment: as above

“TRIM28 (endogenous human TRIM28 protein) (from UniProt Q13263 1-835)” was tested, and the binding [1] was “no binding” and the binding [2] was “binds”.
